In the supplement of paper PMC10849652:
The list shows a part of the results.

Amino acid sequences for entries named in this document (tags omitted). A change or cut given only in a name is not applied to a line headed by its entry.
UniProt Q15121, whole entry, looked up: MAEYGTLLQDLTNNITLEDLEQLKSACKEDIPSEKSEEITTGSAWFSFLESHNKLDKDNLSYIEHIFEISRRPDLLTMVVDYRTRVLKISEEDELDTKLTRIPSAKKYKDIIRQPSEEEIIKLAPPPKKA
UniProt O95453: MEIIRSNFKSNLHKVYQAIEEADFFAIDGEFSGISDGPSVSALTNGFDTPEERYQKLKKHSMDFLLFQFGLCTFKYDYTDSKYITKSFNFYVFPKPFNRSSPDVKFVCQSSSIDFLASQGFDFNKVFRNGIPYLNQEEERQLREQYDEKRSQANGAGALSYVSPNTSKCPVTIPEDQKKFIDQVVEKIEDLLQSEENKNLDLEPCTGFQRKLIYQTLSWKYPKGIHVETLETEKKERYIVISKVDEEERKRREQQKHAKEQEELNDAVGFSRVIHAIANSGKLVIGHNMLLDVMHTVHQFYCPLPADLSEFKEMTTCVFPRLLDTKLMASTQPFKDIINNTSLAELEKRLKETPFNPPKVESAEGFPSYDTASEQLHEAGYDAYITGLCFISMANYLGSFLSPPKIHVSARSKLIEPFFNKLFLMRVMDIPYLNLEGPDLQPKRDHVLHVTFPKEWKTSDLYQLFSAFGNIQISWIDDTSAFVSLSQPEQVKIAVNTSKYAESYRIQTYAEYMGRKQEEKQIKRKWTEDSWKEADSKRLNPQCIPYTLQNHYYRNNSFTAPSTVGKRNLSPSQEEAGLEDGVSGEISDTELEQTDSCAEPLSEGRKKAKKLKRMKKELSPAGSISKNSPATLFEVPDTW
UniProt Q9UBV8: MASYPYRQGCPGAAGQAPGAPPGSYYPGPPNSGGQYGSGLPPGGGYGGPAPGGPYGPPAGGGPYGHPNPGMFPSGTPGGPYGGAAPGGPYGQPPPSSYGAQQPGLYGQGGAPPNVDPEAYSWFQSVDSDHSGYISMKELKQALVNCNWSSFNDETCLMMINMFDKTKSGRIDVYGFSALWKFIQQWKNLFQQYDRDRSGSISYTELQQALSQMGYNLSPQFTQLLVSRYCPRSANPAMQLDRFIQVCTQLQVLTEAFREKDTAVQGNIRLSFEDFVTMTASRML
UniProt P22234: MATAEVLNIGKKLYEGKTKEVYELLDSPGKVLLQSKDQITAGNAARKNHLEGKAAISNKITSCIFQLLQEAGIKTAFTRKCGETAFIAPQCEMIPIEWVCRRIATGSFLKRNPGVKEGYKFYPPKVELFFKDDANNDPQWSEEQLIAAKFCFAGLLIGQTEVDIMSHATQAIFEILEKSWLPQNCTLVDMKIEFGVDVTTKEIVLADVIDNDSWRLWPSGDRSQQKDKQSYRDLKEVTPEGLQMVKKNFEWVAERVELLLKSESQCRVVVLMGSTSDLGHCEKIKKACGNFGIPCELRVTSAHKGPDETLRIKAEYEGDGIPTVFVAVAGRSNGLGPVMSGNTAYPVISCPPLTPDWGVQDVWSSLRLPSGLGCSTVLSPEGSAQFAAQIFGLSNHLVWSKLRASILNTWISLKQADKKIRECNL
UniProt Q99497, whole entry, looked up: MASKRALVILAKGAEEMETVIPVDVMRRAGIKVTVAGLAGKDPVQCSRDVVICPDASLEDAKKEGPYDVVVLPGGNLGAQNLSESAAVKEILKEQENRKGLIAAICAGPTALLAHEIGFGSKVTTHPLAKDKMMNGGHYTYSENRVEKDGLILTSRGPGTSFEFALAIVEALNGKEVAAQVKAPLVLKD
UniProt A6NDB9: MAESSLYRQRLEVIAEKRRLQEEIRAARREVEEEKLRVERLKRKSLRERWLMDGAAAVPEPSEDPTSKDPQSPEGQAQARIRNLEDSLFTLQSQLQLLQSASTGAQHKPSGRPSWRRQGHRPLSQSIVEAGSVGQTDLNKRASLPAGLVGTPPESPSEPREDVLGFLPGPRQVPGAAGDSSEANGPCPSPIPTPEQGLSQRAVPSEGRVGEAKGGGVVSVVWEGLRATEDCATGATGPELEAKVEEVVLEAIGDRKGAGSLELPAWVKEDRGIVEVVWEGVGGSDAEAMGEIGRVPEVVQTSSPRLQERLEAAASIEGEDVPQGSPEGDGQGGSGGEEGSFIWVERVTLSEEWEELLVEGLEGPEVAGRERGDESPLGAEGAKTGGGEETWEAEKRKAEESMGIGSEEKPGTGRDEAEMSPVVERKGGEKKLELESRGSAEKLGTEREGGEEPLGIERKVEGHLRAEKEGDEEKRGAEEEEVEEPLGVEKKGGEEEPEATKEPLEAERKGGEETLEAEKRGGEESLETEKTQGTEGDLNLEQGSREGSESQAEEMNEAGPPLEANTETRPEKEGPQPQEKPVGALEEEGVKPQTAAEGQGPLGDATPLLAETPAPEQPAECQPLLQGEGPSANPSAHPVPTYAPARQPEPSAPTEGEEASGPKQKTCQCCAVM
UniProt Q96RD7, whole entry, looked up: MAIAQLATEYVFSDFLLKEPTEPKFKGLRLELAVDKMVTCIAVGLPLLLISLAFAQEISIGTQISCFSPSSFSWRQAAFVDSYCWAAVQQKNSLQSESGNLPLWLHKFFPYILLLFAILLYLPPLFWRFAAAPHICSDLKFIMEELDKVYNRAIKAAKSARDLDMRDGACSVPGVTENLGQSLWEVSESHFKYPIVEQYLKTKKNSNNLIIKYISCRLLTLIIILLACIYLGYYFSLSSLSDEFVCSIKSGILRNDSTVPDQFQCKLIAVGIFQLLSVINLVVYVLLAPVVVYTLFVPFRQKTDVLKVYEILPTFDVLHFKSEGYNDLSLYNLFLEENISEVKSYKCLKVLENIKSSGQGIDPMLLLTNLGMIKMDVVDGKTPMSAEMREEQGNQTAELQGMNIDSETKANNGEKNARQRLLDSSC
UniProt Q8N5Y8: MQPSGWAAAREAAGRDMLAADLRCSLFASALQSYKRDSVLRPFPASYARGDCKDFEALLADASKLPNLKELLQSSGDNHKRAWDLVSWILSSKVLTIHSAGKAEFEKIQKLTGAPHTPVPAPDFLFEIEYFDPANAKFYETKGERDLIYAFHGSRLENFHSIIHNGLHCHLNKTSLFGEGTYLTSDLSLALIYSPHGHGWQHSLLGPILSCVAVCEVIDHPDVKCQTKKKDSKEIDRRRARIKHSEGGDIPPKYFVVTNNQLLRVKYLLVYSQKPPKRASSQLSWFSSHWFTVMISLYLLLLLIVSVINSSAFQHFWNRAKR
UniProt O00330, whole entry, looked up: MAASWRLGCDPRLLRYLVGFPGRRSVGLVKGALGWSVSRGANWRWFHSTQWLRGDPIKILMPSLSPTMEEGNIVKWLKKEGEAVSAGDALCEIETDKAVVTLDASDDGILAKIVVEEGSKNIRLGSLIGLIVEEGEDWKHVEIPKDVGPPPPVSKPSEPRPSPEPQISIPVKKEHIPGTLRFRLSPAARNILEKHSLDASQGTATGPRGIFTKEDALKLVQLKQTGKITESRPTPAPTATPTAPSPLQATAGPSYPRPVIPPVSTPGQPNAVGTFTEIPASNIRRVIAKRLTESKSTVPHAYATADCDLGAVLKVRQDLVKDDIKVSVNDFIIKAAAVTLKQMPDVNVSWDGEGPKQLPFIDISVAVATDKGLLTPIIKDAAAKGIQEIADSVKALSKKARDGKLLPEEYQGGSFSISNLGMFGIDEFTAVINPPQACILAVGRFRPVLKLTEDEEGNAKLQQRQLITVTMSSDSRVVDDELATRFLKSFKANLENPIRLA
UniProt Q9NR12, whole entry, looked up: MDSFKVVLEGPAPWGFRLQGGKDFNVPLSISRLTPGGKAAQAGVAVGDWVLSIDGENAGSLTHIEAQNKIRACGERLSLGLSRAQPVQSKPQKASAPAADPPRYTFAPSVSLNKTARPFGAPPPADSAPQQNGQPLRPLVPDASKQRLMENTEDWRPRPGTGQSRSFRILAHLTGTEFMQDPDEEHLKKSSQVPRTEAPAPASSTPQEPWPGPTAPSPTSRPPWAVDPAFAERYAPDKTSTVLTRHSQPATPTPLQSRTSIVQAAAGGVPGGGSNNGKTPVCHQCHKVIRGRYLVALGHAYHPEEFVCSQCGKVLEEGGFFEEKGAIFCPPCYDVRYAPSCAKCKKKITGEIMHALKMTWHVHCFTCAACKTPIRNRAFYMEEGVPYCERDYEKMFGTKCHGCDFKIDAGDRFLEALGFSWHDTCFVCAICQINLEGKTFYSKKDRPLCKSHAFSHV
UniProt Q15366, whole entry, looked up: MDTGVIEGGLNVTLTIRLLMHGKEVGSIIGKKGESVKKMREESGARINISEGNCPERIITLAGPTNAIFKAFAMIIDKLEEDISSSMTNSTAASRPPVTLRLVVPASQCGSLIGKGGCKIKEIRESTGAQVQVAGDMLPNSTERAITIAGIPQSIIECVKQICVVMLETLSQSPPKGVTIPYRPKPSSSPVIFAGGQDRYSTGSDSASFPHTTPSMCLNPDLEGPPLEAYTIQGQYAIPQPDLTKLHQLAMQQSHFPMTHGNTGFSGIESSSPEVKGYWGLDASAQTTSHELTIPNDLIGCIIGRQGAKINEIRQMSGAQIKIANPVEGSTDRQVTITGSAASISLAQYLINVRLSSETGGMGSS
UniProt P05166: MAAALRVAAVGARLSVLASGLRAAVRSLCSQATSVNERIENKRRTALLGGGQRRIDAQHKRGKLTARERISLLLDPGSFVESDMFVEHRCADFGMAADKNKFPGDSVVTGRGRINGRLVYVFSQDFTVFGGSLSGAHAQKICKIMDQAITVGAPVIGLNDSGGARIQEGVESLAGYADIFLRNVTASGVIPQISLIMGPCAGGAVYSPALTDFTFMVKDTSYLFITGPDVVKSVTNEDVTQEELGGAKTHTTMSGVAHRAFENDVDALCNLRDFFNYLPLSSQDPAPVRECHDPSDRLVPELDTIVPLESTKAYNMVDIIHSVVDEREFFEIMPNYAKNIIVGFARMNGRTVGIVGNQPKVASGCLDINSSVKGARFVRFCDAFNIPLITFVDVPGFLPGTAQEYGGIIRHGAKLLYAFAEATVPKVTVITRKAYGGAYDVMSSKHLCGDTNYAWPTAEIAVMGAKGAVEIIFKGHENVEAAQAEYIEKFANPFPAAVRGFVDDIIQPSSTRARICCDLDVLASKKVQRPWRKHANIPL
UniProt Q7Z2X7: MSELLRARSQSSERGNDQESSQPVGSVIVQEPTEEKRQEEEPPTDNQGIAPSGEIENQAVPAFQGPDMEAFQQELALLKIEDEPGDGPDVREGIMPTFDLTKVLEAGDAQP
UniProt Q9Y5B6: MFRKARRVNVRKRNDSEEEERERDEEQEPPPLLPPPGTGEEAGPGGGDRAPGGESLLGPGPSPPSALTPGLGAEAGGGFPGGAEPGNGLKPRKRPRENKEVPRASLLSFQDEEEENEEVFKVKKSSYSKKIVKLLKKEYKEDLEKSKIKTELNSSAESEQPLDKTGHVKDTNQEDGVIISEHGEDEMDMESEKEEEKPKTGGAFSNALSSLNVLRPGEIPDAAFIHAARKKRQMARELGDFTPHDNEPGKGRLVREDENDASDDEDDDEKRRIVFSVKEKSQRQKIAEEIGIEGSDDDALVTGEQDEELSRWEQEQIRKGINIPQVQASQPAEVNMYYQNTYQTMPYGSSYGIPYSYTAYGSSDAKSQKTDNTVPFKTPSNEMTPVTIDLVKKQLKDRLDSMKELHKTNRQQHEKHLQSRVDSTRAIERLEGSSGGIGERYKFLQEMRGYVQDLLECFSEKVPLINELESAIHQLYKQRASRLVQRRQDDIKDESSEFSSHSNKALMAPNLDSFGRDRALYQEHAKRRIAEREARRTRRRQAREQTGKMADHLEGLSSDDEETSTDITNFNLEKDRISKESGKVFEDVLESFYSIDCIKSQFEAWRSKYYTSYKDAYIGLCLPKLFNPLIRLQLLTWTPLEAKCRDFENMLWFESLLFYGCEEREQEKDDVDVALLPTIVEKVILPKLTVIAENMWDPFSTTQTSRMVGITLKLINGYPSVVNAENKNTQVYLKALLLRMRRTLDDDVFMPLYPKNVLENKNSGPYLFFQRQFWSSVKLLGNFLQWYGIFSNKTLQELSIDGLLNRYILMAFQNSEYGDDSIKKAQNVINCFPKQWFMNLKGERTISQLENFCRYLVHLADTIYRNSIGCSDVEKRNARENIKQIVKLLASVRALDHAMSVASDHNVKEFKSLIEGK
UniProt Q5EBL8: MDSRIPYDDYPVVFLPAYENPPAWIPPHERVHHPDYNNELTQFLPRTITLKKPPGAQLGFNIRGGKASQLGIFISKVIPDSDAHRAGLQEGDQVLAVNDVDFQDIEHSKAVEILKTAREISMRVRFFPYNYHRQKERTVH
UniProt Q86U42: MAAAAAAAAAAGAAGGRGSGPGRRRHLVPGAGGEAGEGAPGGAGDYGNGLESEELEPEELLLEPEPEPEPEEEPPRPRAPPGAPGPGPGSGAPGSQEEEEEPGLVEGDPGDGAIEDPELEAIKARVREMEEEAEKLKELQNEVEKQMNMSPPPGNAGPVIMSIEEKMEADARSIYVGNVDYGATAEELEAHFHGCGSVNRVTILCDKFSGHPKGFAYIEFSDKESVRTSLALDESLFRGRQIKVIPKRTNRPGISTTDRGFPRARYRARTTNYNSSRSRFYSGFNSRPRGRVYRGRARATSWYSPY
UniProt Q96GU1: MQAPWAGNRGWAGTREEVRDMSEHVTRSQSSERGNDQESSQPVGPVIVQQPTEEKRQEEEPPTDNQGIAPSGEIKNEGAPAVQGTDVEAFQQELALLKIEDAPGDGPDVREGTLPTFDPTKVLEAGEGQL

Key:
Assay in all cases: log2 fold change, soluble protein after heating vs DMSO (PISA); higher = thermal stabilisation; K562 cells, 10 uM, 30 min; active = over 0.2 and 3.5 SD of the protein, either way, in both replicates (recomputed)
bafetinib = compound: Cc1ccc(NC(=O)c2ccc(CN3CC[C@H](N(C)C)C3)c(C(F)(F)F)c2)cc1Nc1nccc(-c2cncnc2)n1 [bafetinib]
Procedure, shortened: (§1)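 K562 cells at 2×10^6 cells/mL were given 10 μM compound for 30 min. Aliquots then went through 3 min of heating across 48°C-58°C, were pooled, and were extracted in PBS with 0.5% NP-40 at 4°C, and the supernatant after 21,000xg for 90 min was quantified by TMTpro 16plex LC-MS/MS with channel sums equalised. Thermal stability relative to control samples, from duplicates, is given as log2 fold change.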

[1] = compound: Cc1cccc(CC(=O)N2CCc3c2ccc(-c2cn(C)c4ncnc(N)c24)c3F)n1
Procedure, shortened: as §1

nilotinib = compound: Cc1cn(-c2cc(NC(=O)c3ccc(C)c(Nc4nccc(-c5cccnc5)n4)c3)cc(C(F)(F)F)c2)cn1 [nilotinib]
Procedure, shortened: as §1

[2] = compound: Cc1nc(Nc2n[nH]c3c2CN(C(=O)N[C@H](CN(C)C)c2ccccc2)C3(C)C)c2sccc2n1
Procedure, shortened: as §1

dasatinib = compound: Cc1nc(Nc2ncc(C(=O)Nc3c(C)cccc3Cl)s2)cc(N2CCN(CCO)CC2)n1 [dasatinib]
Procedure, shortened: as §1

[3] = compound: Cc1ncc(-c2ccnc(Nc3ccc(S(C)(=O)=O)cc3)n2)n1C(C)C
Procedure, shortened: as §1

[4] = compound: Cn1cc(-c2ccc3c(c2)CCN3C(=O)Cc2cccc(C(F)(F)F)c2)c2c(N)ncnc21
Procedure, shortened: as §1

[5] = compound: Cn1cc(-c2ccc3nnc(C(F)(F)c4ccc5ncccc5c4)n3n2)cn1
Procedure, shortened: as §1

tipifarnib = compound: Cn1cncc1[C@@](N)(c1ccc(Cl)cc1)c1ccc2c(c1)c(-c1cccc(Cl)c1)cc(=O)n2C [tipifarnib]
Procedure, shortened: as §1

mubritinib = compound: FC(F)(F)c1ccc(/C=C/c2nc(COc3ccc(CCCCn4ccnn4)cc3)co2)cc1 [mubritinib]
Procedure, shortened: as §1

Measured: log2 fold change

PER3 isoform 2 (UniProt P56645)
inactive: bafetinib -0.032 | [1] -0.035 | nilotinib 0.022 | [2] 0.023 | dasatinib 0.051 | [3] 0.053 | [4] -0.021 | [5] -0.126 | tipifarnib 0.053 | mubritinib -0.01

PDS5A (UniProt Q29RF7)
inactive: bafetinib -0.055 | [1] 0.008 | nilotinib -0.397 | [2] -0.164 | dasatinib -0.3 | [3] 0.001 | [4] 0.08 | [5] 0.123 | tipifarnib -0.231 | mubritinib 0.157

PEA15 isoform 2 (UniProt Q15121)
inactive: bafetinib -0.077 | [1] -0.008 | nilotinib 0 | dasatinib -0.026 | [3] -0.004 | [4] 0.036 | [5] 0.021 | tipifarnib 0.04 | mubritinib 0.054
active: [2] -0.4

PARN (UniProt O95453)
inactive: bafetinib -0.104 | [1] 0.019 | nilotinib -0.018 | [2] -0.073 | dasatinib -0.182 | [3] -0.011 | [4] -0.003 | [5] 0.018 | tipifarnib -0.01 | mubritinib 0.076

PEF1 (UniProt Q9UBV8)
inactive: bafetinib -0.106 | [1] 0.089 | nilotinib -0.005 | [2] 0.012 | dasatinib -0.047 | [3] -0.013 | [4] 0.132 | [5] 0.113 | tipifarnib -0.126 | mubritinib 0.099

PAICS (UniProt P22234)
inactive: bafetinib 0.003 | [1] -0.046 | nilotinib 0.005 | [2] 0.001 | dasatinib 0.048 | [3] -0.022 | [4] 0.016 | [5] -0.011 | tipifarnib 0.025 | mubritinib 0.018

PARK7 (UniProt Q99497)
inactive: bafetinib 0.007 | [1] 0.143 | nilotinib -0.022 | [2] 0 | dasatinib -0.003 | [3] -0.01 | [4] 0.09 | [5] -0.007 | tipifarnib -0.096 | mubritinib 0.013

PALM3 (UniProt A6NDB9)
inactive: bafetinib 0.024 | [1] -0.089 | nilotinib 0.066 | [2] -0.055 | dasatinib 0.07 | [3] -0.035 | [4] -0.007 | [5] -0.062 | tipifarnib 0.033 | mubritinib 0.029

PANX1 (UniProt Q96RD7)
inactive: bafetinib -0.038 | [1] -0.003 | nilotinib 0.054 | [2] 0.019 | dasatinib 0.045 | [3] -0.01 | [4] 0.034 | [5] -0.037 | tipifarnib -0.009 | mubritinib 0.037

PDIA3 (UniProt H7BZJ3)
inactive: bafetinib -0.046 | [1] 0.001 | nilotinib 0.121 | [2] 0.067 | dasatinib 0.126 | [3] -0.069 | [4] -0.281 | tipifarnib 0.085 | mubritinib -0.074

PCIF1 (UniProt Q9H4Z3)
inactive: bafetinib 0.016 | [1] -0.053 | nilotinib -0.025 | [2] -0.043 | dasatinib -0.116 | [3] 0.011 | [5] 0.026 | mubritinib 0.218

PATL1 (UniProt Q86TB9)
inactive: bafetinib -0.007 | [1] 0.034 | dasatinib -0.032 | [4] 0.08 | [5] -0.013 | tipifarnib 0.039 | mubritinib -0.04

PARP16 isoform 3 (UniProt Q8N5Y8)
inactive: bafetinib 0.096 | [1] -0.005 | nilotinib -0.034 | [2] -0.019 | dasatinib -0.009 | [3] 0.053 | [4] 0.011 | tipifarnib -0.092 | mubritinib 0.089

PCSK6 isoform 7 (UniProt P29122)
inactive: bafetinib -0.069 | [1] -0.21 | nilotinib -0.268 | [2] 0.134 | [3] -0.121 | [4] -0.12 | tipifarnib 0.002 | mubritinib 0.002

PDHX (UniProt O00330)
inactive: bafetinib 0.169 | [1] 0.046 | nilotinib -0.01 | [2] 0.137 | dasatinib 0.057 | [3] -0.058 | [4] -0.316 | [5] -0.086 | tipifarnib 0.292 | mubritinib -0.229

PDLIM7 (UniProt Q9NR12)
inactive: bafetinib -0.01 | [1] 0.107 | nilotinib 0 | [2] -0.078 | dasatinib -0.036 | [3] -0.01 | [4] 0.006 | [5] -0.048 | tipifarnib -0.091 | mubritinib -0.042

PCF11 (UniProt O94913)
inactive: bafetinib -0.099 | [1] 0.078 | [4] -0.095 | [5] 0.007 | tipifarnib 0.168 | mubritinib 0.179

PCBP2 isoform 3 (UniProt Q15366)
inactive: bafetinib 0.037 | [1] 0.083 | nilotinib -0.095 | [2] -0.156 | dasatinib -0.132 | [3] -0.058 | [4] 0.007 | [5] 0.018 | tipifarnib -0.08 | mubritinib 0.004

PCCB isoform 2 (UniProt P05166)
inactive: bafetinib 0.031 | [1] 0.017 | nilotinib 0.012 | [2] 0.029 | dasatinib -0.056 | [3] -0.083 | [4] -0.025 | [5] 0.03 | tipifarnib -0.011 | mubritinib 0.128

PCBP2 (UniProt F8VRH0)
inactive: bafetinib 0.293 | [1] -0.039 | nilotinib -0.347 | [2] -0.215 | dasatinib -0.146 | [3] -0.009 | [4] 0.112 | tipifarnib 0.067 | mubritinib 0.129

PAGE2 (UniProt Q7Z2X7)
inactive: bafetinib -0.046 | [1] -0.047 | nilotinib -0.02 | [2] -0.05 | dasatinib -0.023 | [3] 0.009 | [4] 0.122 | tipifarnib 0.161 | mubritinib 0.034

PAXBP1 (UniProt Q9Y5B6)
inactive: bafetinib 0.054 | [1] -0.064 | [5] 0.102

PDZD11 isoform 2 (UniProt Q5EBL8)
inactive: bafetinib -0.022 | [1] -0.016 | nilotinib -0.02 | [2] -0.033 | dasatinib 0.043 | [3] 0.022 | [5] 0 | tipifarnib -0.058 | mubritinib 0.057

PAIP2 (UniProt Q9BPZ3)
inactive: bafetinib 0.028 | [1] 0.048 | nilotinib -0.085 | [2] 0.117 | dasatinib -0.081 | [3] 0.129 | [4] -0.338 | [5] -0.039 | tipifarnib 0.003 | mubritinib 0.055

PABPN1 (UniProt Q86U42)
inactive: bafetinib -0.064 | [1] -0.305 | dasatinib -0.031 | [4] -0.334 | mubritinib -0.266

PANK1 (UniProt Q8TE04)
inactive: bafetinib -0.095 | [1] -0.054 | nilotinib 0 | [2] -0.094 | dasatinib 0.062 | [3] -0.009 | [4] 0.13 | [5] 0.13 | tipifarnib 0.031 | mubritinib -0.128

PAXIP1 (UniProt Q6ZW49)
inactive: bafetinib -0.036 | [1] 0.075 | nilotinib -0.019 | [2] -0.018 | dasatinib -0.113 | [3] -0.053 | [4] -0.261 | [5] 0.107 | tipifarnib 0.02 | mubritinib 0.025

PAGE5 (UniProt Q96GU1)
inactive: bafetinib -0.099 | [1] -0.218 | nilotinib 0.029 | [2] -0.093 | dasatinib 0.032 | [3] -0.054 | [4] 0.204 | [5] 0.145 | tipifarnib 0.504 | mubritinib 0.002

PAPOLA (UniProt P51003)
inactive: bafetinib -0.066 | [1] -0.005 | nilotinib -0.029 | [2] -0.02 | dasatinib -0.079 | [3] -0.003 | [4] 0.015 | [5] 0.041 | tipifarnib -0.033 | mubritinib -0.003

Reprinted at random: 2 records from the list.
PAXBP1 (UniProt Q9Y5B6)
inactive: bafetinib 0.054 | [1] -0.064 | [5] 0.102

PDZD11 isoform 2 (UniProt Q5EBL8)
inactive: bafetinib -0.022 | [1] -0.016 | nilotinib -0.02 | [2] -0.033 | dasatinib 0.043 | [3] 0.022 | [5] 0 | tipifarnib -0.058 | mubritinib 0.057

Continuation.

PDHB (UniProt P11177)
inactive: bafetinib 0.188 | [1] 0.075 | nilotinib -0.001 | [2] 0.17 | dasatinib -0.001 | [3] -0.024 | [4] -0.074 | [5] 0.057 | tipifarnib 0.096 | mubritinib 0.12

PDIA5 (UniProt Q14554)
inactive: bafetinib 0.02 | [1] -0.008 | nilotinib 0.013 | [2] 0.028 | dasatinib 0.031 | [3] -0.059 | [4] -0.057 | [5] 0.014 | tipifarnib 0.088 | mubritinib -0.095
